The values that follow come from paper PMC7819943, “Rice protein-binding microarrays: a tool to detect cis-acting elements near promoter regions in rice”.

The other results are listed elsewhere or left out.

For the assay, the target named is T1, OsSMF1 (Oryza sativa, UniProt Q6ZLB0 1-436).
T1 sequence: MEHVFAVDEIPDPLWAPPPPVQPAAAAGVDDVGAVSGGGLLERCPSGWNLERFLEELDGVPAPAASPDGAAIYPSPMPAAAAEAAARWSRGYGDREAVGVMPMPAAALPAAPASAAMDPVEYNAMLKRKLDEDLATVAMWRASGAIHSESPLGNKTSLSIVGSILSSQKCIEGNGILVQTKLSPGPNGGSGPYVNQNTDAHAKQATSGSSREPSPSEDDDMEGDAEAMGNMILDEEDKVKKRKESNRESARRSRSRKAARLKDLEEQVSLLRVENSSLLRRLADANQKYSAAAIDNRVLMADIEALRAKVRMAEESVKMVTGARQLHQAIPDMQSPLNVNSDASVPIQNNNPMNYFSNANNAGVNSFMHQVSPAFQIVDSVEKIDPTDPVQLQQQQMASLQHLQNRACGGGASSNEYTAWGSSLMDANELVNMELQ
As to the kind of experiment: protein-binding microarray (RPBM); PBS, 2% BSA, 51.3 ng/ul salmon testes DNA, 50 uM zinc acetate, 200 nM TF, 25 C, 1 h; high values mean tight binding. The conditions noted are these: protein: recombinant; tags: N-terminal polyhistidine and DsRed monomer fusion (pET32a); chain copies: 2; label: CyDye5-dUTP incorporated in the synthesized complementary strand; 3' TTTTT single-stranded linker to array surface; dsDNA, one strand shown. Summed up: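 Transcription factors, each fused N-terminally to a polyhistidine tag and DsRed, were expressed in E. coli BL21-CodonPlus and purified on Ni–NTA. A custom Agilent array was made double-stranded by primer extension with Cy5-dUTP and blocked with 2% BSA. It was incubated with 200 nM protein in PBS, 2% BSA, salmon testes DNA and 50 µM zinc acetate at 25 °C for 1 h, then washed. The binding signal is per-feature fluorescence intensity (arbitrary units) read on an Axon 4000B scanner.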
For “TGCCCTTGCTGCGGGTGCAGAACTCCATCTGCTCCGGCGGCGGAGTCACCTAGTGCAG”, the binding signal is 3980 fluorescence intensity (a.u.).

Take “GCTTGCGTGCGCATGGCGTCAGCGTGACCGCCGCCGGCCGCGGAGTCACCTAGTGCAG”: the binding signal was 6520 fluorescence intensity (a.u.).

Regarding “AATAATAATTCTTATCGATTTACGTGTCATCGCAATATTTCGGAGTCACCTAGTGCAG”, the binding signal was 6340 fluorescence intensity (a.u.).

For “GGGATTGGCCACGTCCACGTGTGGATTCTTTGCGTGCATCCGGAGTCACCTAGTGCAG”, the binding signal was 7680 fluorescence intensity (a.u.).

Consider “ACCACCACGTAATAACACCGTAAGATCAACTCTAAGCTTTCGGAGTCACCTAGTGCAG”, for which the binding signal was 6470 fluorescence intensity (a.u.).

In the case of “TTAATCGTTGTCACATGTCAGCATCGTTGGTCATGGAATTCGGAGTCACCTAGTGCAG”, the binding signal is 5090 fluorescence intensity (a.u.).

On to “TGCATCCGCCCAGTTGCCACGCGCCCCTTTTAACTAAGACCGGAGTCACCTAGTGCAG”, for which the binding signal is 3760 fluorescence intensity (a.u.).

As to “TCACCGAGAGCCAGCCGGGACGACGGTGGCCCAAGCCGGGCGGAGTCACCTAGTGCAG”, the binding signal was 4300 fluorescence intensity (a.u.).

Consider “CCTTACATGAGCCTCCTGTCTGTGTCATCACCACCTCCTCCGGAGTCACCTAGTGCAG”, for which the binding signal was 7820 fluorescence intensity (a.u.).

For the sequence “CATCCCATGGCCGCCAGGTTATCCACATCATCCGCACCGGCGGAGTCACCTAGTGCAG”, the binding signal was 6920 fluorescence intensity (a.u.).

For “CCAACAAACCCAGCGCATCCTCATCGTCGTCATCAGGAGACGGAGTCACCTAGTGCAG”, the binding signal was 3390 fluorescence intensity (a.u.).

“CCGCAGCCAATGATCCTGTAGAGGATGCCACCGTTGAAGACGGAGTCACCTAGTGCAG”: the binding signal was 3420 fluorescence intensity (a.u.).

As to “GTCAGCCACAGCCCCGACGAGACGAGAGACCTCTCCTCCGCGGAGTCACCTAGTGCAG”, the binding signal was 9960 fluorescence intensity (a.u.).

On to “TGTTCTAACAATAGCATTTCTTGCATTTAACTATGTTCCTCGGAGTCACCTAGTGCAG”, for which the binding signal is 52900 fluorescence intensity (a.u.).

On to “TACTTAATCCCATCGTCCATCCGCCATCTCATCTGATCTCCGGAGTCACCTAGTGCAG”, for which the binding signal is 3930 fluorescence intensity (a.u.).

Turning to “ACTCAGTGAGTCAAATCTGCCACATCAGTAGAAACCACTCCGGAGTCACCTAGTGCAG”, the binding signal was 9900 fluorescence intensity (a.u.).

For the sequence “GTATTGTGTTCTGTTTTAGCTGACGTGACGCCTACGTGGTCGGAGTCACCTAGTGCAG”, the binding signal was 11400 fluorescence intensity (a.u.).

Consider “CCCCAGCCGCTGCCGCTGCCATGTGCAATCATCCCCGCATCGGAGTCACCTAGTGCAG”, for which the binding signal was 3510 fluorescence intensity (a.u.).

As for “TATGTAAGAGTAGTATATGAGACTCTGACACGTACGCACACGGAGTCACCTAGTGCAG”, the binding signal was 7540 fluorescence intensity (a.u.).

Turning to “TGTGCAGTTTTGCTGTTTATGACTAGTTTACCTGTTGTCTCGGAGTCACCTAGTGCAG”, the binding signal was 3250 fluorescence intensity (a.u.).

Turning to “GAACAATCTGCCACGTCACACAAAACACCCTCTGGGAGGACGGAGTCACCTAGTGCAG”, the binding signal is 11200 fluorescence intensity (a.u.).

Take “TGTTCTTGCTACGCTGGGAGGGGAGGGGTGGCGCCGCGGCCGGAGTCACCTAGTGCAG”: the binding signal was 4350 fluorescence intensity (a.u.).

Consider “ATAAGGCCCGAGGCCCGAAGGCCCGGCCCATGGCACGCCTCGGAGTCACCTAGTGCAG”, for which the binding signal was 3270 fluorescence intensity (a.u.).
